{
  "sequences": {"note": "The chains behind the UniProt entries cited, without tags or fusion partners.", "UniProt P07947, whole entry, looked up": "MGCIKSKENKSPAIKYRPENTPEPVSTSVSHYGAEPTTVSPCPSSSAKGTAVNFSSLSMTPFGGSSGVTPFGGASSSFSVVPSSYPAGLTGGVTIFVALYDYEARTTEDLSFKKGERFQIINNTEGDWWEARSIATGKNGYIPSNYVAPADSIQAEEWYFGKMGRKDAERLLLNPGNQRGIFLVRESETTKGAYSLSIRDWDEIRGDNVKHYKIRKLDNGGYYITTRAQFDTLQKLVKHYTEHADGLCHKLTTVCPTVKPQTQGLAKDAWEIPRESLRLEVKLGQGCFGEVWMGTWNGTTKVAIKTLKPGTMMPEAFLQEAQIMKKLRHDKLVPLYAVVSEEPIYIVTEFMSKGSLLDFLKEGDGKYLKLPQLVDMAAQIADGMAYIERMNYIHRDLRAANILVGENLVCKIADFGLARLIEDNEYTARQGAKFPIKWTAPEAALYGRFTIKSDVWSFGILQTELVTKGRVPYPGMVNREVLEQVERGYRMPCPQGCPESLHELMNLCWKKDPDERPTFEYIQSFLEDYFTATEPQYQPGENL"},
  "source": "PubChem BioAssay (NCATS)",
  "note": "“And” between values parts separate entries of the source, which are not always exact repeats. Equal values may be shown once. The shares of active, inactive and inconclusive entries below differ from those in the screen. Where the call is inconclusive, the potency comes from a doubtful curve fit. The source made the active and inactive calls. Calls come from the whole dose curve; as a rule, active = well fitted inhibition curve with a large enough effect; inconclusive = small, poorly fitted or top-dose-only effect; inactive = no such curve, though single readings can be large or run the other way. Potency is the fitted concentration of half-maximal effect.",
  "data": [
    {"molecular_target": "Tyrosine-protein kinase Yes (Homo sapiens) (UniProt P07947)", "assay": "qHTS for small molecule inhibitors of Yes1 kinase: Primary Screen (AID 686947); note: nearly all actives have a fitted effect of over 60% in size", "conditions": "Yes1 kinase biochemical qHTS inhibition; activity change, negative = inhibition: at 76.9 µM (top of the series)", "description": "The Src family of non-receptor protein tyrosine kinases contains nine members, including Yes1, Src, Fyn, Lyn, and […]. These kinases have important roles in a variety of cellular functions, such as cell proliferation, survival, and differentiation. Src, the most well characterized member of this family, has been previously identified as a proto-oncogene. […] In melanoma, it has been shown that Yes1, and not other family members, such as Src, is functionally involved in the malignant phenotype. Additionally, a recent study examining the downregulation of Yes1 by shRNA found significant effects on cell survival/growth for basal-like and Her2-positive breast cancers. Despite the potential for Yes1 to be a target for the above-described cancers, there are very few reports on the identification of potent and selective inhibitors of Yes1 kinase. Antagonists of Yes1 would further elucidate Yes1 biology and help to confirm whether Yes1 is a viable target for therapeutic intervention in a variety of cancers.\nA compound that inhibits Yes1 could be important for the treatment of various cancers in which Yes1 is highly expressed and can also be used as a tool compound to help further elucidate Yes1 biology. To that end, we have developed a sensitive HTS biochemical assay for Yes1 activity. This assay was screened against several small compound libraries to look for modulators of activity. Inhibition is the desired output for this assay.\nNIH Molecular Libraries Probe Production Centers Network [MLPCN]\nNIH Chemical Genomics Center [NCGC]\nTwo micoliter of Yes1 enzyme (columns 1-2, 5-48; Millipore, Billerica, MA) are dispensed into Greiner, white solid-bottom 1536-well assay plates; columns 3 and 4 receive buffer without Yes1 as a control for maximum inhibition. Compounds (23 nL) are then transferred via Kalypsys pin tool equipped with 1536-pin array (10 nL slotted pins, V&P Scientific, San Diego, CA). […] Following addition of compound and a 20 minute incubation, 1 uL of substrate (ATP and poly-E4Y from Sigma-Aldrich, St. Louis, MO) is added, and the biochemical reaction is allowed to progress for 60 minutes at room temperature. The production of ADP is then quantified by the ADP-Glo Kit (Promega, Madison, WI). First, 2 uL of the first kit reagent is added, and the reaction is incubated for 45 minutes; then, 4 uL of the second kit reagent are added and the reaction is incubated for 30 minutes at which time the luminescence is read on a Viewlux plate reader (Perkin-Elmer, Waltham, MA). The final concentration of reagents in the reaction are 4 nM Yes1, 0.1 mM ATP, 100 uM EGTA, 10 mM MgCl2, 0.3 mg/mL poly(E4Y), 50 mM Tris pH 7.5, 1 mM DTT, 150 mM NaCl, 0.01% Brij-35, and 5% glycerol. Data are normalized to DMSO-treated control columns with (maximum signal) and without (minimum signal) enzyme.", "values": [
      {"smiles": "COc1ccc(C2=C(N3CCc4ccccc43)C(=O)NC2=O)cc1", "Potency": "inconclusive: 32.8 µM [inhibitor, single point]"},
      {"smiles": "CN1CCC(C(=O)Nc2n[nH]c3nc(-c4ccc(O)cc4)c(Br)cc23)CC1", "Potency": "active: 36.8 µM and active: 23.2 µM"},
      {"smiles": "CCc1nccc2c1nc(-c1nonc1N)n2CC", "Potency": "inconclusive: 41.2 µM [inhibitor, single point]"},
      {"smiles": "CN(C)CCCNc1nccc(-c2c(-c3ccc(F)cc3)nn3cc(C(F)(F)F)ccc23)n1", "Potency": "inconclusive: 36.8 µM [inhibitor, partial curve, poor fit]"},
      {"smiles": "O=C(Nc1n[nH]c2cc(-c3ccc(F)cc3)ccc12)C1CC1", "Potency": "inconclusive: 6.54 µM [inhibitor, full curve, poor fit]"},
      {"smiles": "COc1ccc2nc3c4nc5ccc(OC)cc5c4c4c(=O)[nH]c(=O)c4c3c2c1", "Potency": "inconclusive: 58.2 µM [inhibitor, single point]"},
      {"smiles": "COC(=O)Nc1nc2ccc(Oc3ccc(NC(=O)Nc4cccc(Cl)c4)cc3)cc2[nH]1", "activity change, negative = inhibition": "inactive: 1.48%"},
      {"smiles": "Cc1nnc(-c2ccc(C)c(-c3ccc(C(=O)Nc4cccc(C#N)c4)cc3)c2)o1", "Potency": "inconclusive: 58.2 µM [inhibitor, single point]"},
      {"smiles": "CS(=O)(=O)Nc1ccc(-c2cc(-c3ccccc3)cc(C(N)=O)c2N)cc1", "Potency": "active: 13 µM"},
      {"smiles": "Cc1cccc(Nc2ncc(-c3ccccc3)o2)c1", "Potency": "inconclusive: 4.63 µM [inhibitor, full curve]"},
      {"smiles": "CC(Oc1cc(-n2cnc3ccc(OCC(O)CO)cc32)sc1C(N)=O)c1ccccc1Cl", "note": "(stereo not given)", "Potency": "inconclusive: 4.12 µM [inhibitor, full curve, poor fit]"},
      {"smiles": "O=C(Nc1n[nH]c2cc(-c3ccccc3)ccc12)C1CC1", "Potency": "inconclusive: 7.33 µM [inhibitor, full curve]"},
      {"smiles": "CN(C)CCOc1ccc(-c2cc(-c3ccc4c(c3)CCC4=NO)c(-c3ccncc3)o2)cc1", "Potency": "inconclusive: 3.28 µM [inhibitor, full curve]"},
      {"smiles": "Cc1cccc2c(N=Nc3ccc(S(N)(=O)=O)cc3)c(O)[nH]c12", "Potency": "inconclusive: 20.7 µM [inhibitor, single point]"},
      {"smiles": "N#Cc1cccc(Nc2nccc(-c3cnn4ncccc34)n2)c1", "Potency": "inconclusive: 0.368 µM [inhibitor, full curve, poor fit]"},
      {"smiles": "Cc1cc(O)cc(C)c1C=Cc1cncc(C(N)=O)c1", "Potency": "active: 0.463 µM"},
      {"smiles": "CC(=O)NCc1cccc(C#Cc2cncnc2Nc2ccc(OCc3cccc(F)c3)c(Cl)c2)c1", "Potency": "inconclusive: 0.654 µM [inhibitor, full curve]"},
      {"smiles": "CNC(=O)c1cccc(C#Cc2cncnc2Nc2ccc(OCc3cccc(F)c3)c(Cl)c2)c1", "Potency": "inconclusive: 26 µM [inhibitor, partial curve]"},
      {"smiles": "Fc1ccc(-c2ncn(CCCN3CCOCC3)c2-c2ccncc2)cc1", "Potency": "inconclusive: 51.9 µM [inhibitor, partial curve]"},
      {"smiles": "Fc1cccc(COc2ccc(Nc3ncnc4cc(-c5ccc[nH]5)sc34)cc2Cl)c1", "Potency": "inconclusive: 26 µM [inhibitor, partial curve]"},
      {"smiles": "COC(=O)Nc1nc2ccc(Oc3ccc(NC(=O)Nc4ccccc4)cc3)cc2[nH]1", "activity change, negative = inhibition": "inactive: -23.1%"},
      {"smiles": "Fc1cccc(COc2ccc(Nc3ncnc4sc(-c5cccs5)cc34)cc2Cl)c1", "Potency": "inconclusive: 41.2 µM [inhibitor, single point]"},
      {"smiles": "CCOc1ccc2c(-c3ccnc(Nc4cc(OC)cc(C(F)(F)F)c4)n3)cnn2n1", "Potency": "inconclusive: 10.4 µM [inhibitor, full curve, poor fit]"},
      {"smiles": "CCn1c(-c2nonc2N)nc2c(C#CC(C)(C)O)nc(OCC(N)c3ccccc3)cc21", "note": "(stereo not given)", "Potency": "inconclusive: 8.23 µM [inhibitor, partial curve] and inconclusive: 7.33 µM [inhibitor, partial curve]"},
      {"smiles": "O=C(Nc1n[nH]c2cc(-c3cc(F)ccc3F)ccc12)C1CC1", "Potency": "active: 26 µM"},
      {"smiles": "OCCCNc1nccc(-c2c(-c3ccc(F)cc3)nn3cc(C(F)(F)F)ccc23)n1", "Potency": "inconclusive: 5.19 µM [inhibitor, full curve]"},
      {"smiles": "c1cnn2ncc(-c3ccnc(NCCCN4CCOCC4)n3)c2c1", "Potency": "inconclusive: 46.3 µM [inhibitor, single point]"},
      {"smiles": "CCc1nn2ncccc2c1-c1ccnc(NC2CC2)n1", "Potency": "inconclusive: 36.8 µM [inhibitor, single point]"},
      {"smiles": "NC(=O)c1sc(-n2cnc3ccc(C(F)(F)F)cc32)cc1OCc1ccccc1Br", "Potency": "inconclusive: 32.8 µM [inhibitor, single point]"},
      {"smiles": "O=C(Nc1n[nH]c2nnc(-c3cccnc3)cc12)C1CC1", "Potency": "inconclusive: 26 µM [inhibitor, partial curve, poor fit]"},
      {"smiles": "O=C(Nc1ccc(Oc2ccc3nc(NC(=O)c4ccccc4)[nH]c3c2)cc1)Nc1cc(C(F)(F)F)ccc1F", "Potency": "inconclusive: 8.23 µM [inhibitor, partial curve]"},
      {"smiles": "COc1cccc(-n2ncc3c(NN=Cc4ccc(C)cc4)ncnc32)c1", "Potency": "inconclusive: 0.463 µM [inhibitor, full curve]"},
      {"smiles": "COc1cccc(-n2ncc3c(NN=Cc4ccc(C(=O)NCCN(C)C)cc4)ncnc32)c1", "Potency": "active: 0.0207 µM"},
      {"smiles": "COc1ccc2cc(-c3c(-c4ccncc4)nc(-c4ccc(S(C)=O)cc4)n3C)ccc2c1", "note": "(stereo not given)", "Potency": "inconclusive: 1.84 µM [inhibitor, full curve, poor fit]"},
      {"smiles": "CNC(=O)c1cc(-c2ccc(F)cc2)cc(-c2ccc(S(=O)(=O)N3CCCC3)cc2)c1N", "activity change, negative = inhibition": "inactive: 10.8%"},
      {"smiles": "COc1ccc2ncn(-c3cc(OC(C)c4ccccc4Cl)c(C(N)=O)s3)c2c1", "note": "(stereo not given)", "Potency": "inconclusive: 26 µM [inhibitor, partial curve]"},
      {"smiles": "NS(=O)(=O)c1ccc(-c2cc3ccncc3cc2OCc2ccccc2)cc1", "Potency": "inconclusive: 36.8 µM [inhibitor, single point]"},
      {"smiles": "COc1cc(Nc2nccc(-c3cnn4ncccc34)n2)cc(OC)c1", "Potency": "active: 0.519 µM"},
      {"smiles": "CC(=O)Nc1cccc(C#Cc2cncnc2Nc2ccc(OCc3cccc(F)c3)c(Cl)c2)n1", "activity change, negative = inhibition": "inactive: -14%"},
      {"smiles": "Nc1nccc(-c2c(-c3ccc(F)cc3)nn3cc(C(F)(F)F)ccc23)n1", "activity change, negative = inhibition": "inconclusive: 3.81% [inhibitor]"}
    ]}
  ]
}
